From article doi:10.1101/2021.11.13.468331 (bioRxiv, 2021) come the findings set out here.

Amino acid sequences for entries named in this document (tags omitted). A change or cut given only in a name is not applied to a line headed by its entry.
UniProt P56395, whole entry: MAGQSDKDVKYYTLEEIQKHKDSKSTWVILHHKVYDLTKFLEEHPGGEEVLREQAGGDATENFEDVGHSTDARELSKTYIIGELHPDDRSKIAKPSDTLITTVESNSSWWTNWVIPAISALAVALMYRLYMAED

The target of assay [1] is T1, SCD1-GFP (stearoyl-CoA desaturase 1 with a C-terminal GFP tag) (mouse) (UniProt P13516).
T1 sequence: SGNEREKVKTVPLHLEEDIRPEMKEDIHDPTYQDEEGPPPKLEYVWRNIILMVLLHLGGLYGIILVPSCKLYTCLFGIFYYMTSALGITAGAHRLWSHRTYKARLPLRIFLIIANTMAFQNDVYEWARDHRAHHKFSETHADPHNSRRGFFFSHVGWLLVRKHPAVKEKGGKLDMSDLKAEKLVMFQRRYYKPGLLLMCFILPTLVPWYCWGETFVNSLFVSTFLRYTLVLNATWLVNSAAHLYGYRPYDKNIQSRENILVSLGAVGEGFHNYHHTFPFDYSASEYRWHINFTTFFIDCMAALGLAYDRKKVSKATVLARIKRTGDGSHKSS
Briefly: co-IP.

In assay [2] the target is T2, SCD1, purified as an individual protein (mouse) (UniProt P13516).
T2 sequence: T1 sequence
Briefly: SEC. For orientation: SEC sorts molecules by how far they enter the pores of the column.

The target of assay [3] is soluble domain of cyt b5 (4 - 89), E43A (mouse) (UniProt P56395). Briefly: BLI. (BLI is a label-free optical method that tracks binding on a fibre tip over time.)
Assay [4] deals with soluble domain of cyt b5 (4 - 89), E49A (mouse) (UniProt P56395). Kind of assay: BLI.
Assay [5] deals with T1, SCD1-GFP (stearoyl-CoA desaturase 1 with a C-terminal GFP tag) (mouse). Kind of assay: co-IP. The source holds these as a separate data set.
In assay [6] the target is Myc-cyt b5 (cytochrome b5 with an N-terminal Myc tag) (mouse) (UniProt P56395). Kind of assay: co-IP.

Where two headings read alike, the source gives them in different places. No constants are given. Whether binding was seen depends on the method and setting. For some assays here: Binding seen in cells or lysates may run through a third protein. Some entries that bind do so weakly or less than the wild type. For some assays here: Sequences can lack the tags named with a protein.

Turning to “Myc-cyt b5 (cytochrome b5 with an N-terminal Myc tag) (from UniProt P56395 1-134)”, the binding result in assay [1] is reported as “binds”.

B1: soluble domain of b5R (24 - 301) (domain or fragment, UniProt Q9DCN2 24-301)
chain: MKLFQRSTPAITLENPDIKYPLRLIDKEVISPDTRRFRFALPSPQHILGLPIGQHIYLSTRIDGNLVIRPYTPVSSDDDKGFVDLVVKVYFKDTHPKFPAGGKMSQYLENMKIGDTIEFRGPNGLLVYQGKGKFAIRADKKSNPVVRTVKSVGMIAGGTGITPMLQVIRAVLKDPNDHTVCYLLFANQSEKDILLRPELEELRNEHSARFKLWYTVDKAPDAWDYSQGFVNEEMIRDHLPTPGEEPLILMCGPPPMIQFACLPNLERVGHPKERCFTF
Take B1: the binding result is listed as “no binding” in assay [2], “binds weakly” in assay [3] and “binds weakly” in assay [4].

B2: SCD1, purified as an individual protein (enzyme, UniProt P13516 24-355)
chain: T1 sequence
Consider B2, for which the binding result in assay [3] and in assay [4] was “binds” each time.

B3: HA-b5R (cytochrome b5 reductase with an N-terminal HA tag) (enzyme, UniProt Q9DCN2 1-301)
chain: MGAQLSTLSHVVLSPVWFIYSLFMKLFQRSTPAITLENPDIKYPLRLIDKEVISPDTRRFRFALPSPQHILGLPIGQHIYLSTRIDGNLVIRPYTPVSSDDDKGFVDLVVKVYFKDTHPKFPAGGKMSQYLENMKIGDTIEFRGPNGLLVYQGKGKFAIRADKKSNPVVRTVKSVGMIAGGTGITPMLQVIRAVLKDPNDHTVCYLLFANQSEKDILLRPELEELRNEHSARFKLWYTVDKAPDAWDYSQGFVNEEMIRDHLPTPGEEPLILMCGPPPMIQFACLPNLERVGHPKERCFTF
Take B3: the binding entry is recorded as “binds weakly” in assay [5] and “binds” in assay [6].
